The list shows a part of the results.
Compound: Cc1cc(ccc1-c1ccccc1)C(=O)N1CCCN(CC1)C(=O)CCl [compound 10]
Experiment: probe-labelled cysteine peptide fold change vs DMSO (competition) (log2 fold change); higher = less target engagement (more negative = stronger competition)
Settings: THP-1, incubation time: 4 h
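Note: competitive profiling in live THP-1 cells: cysteine peptides tagged with an iodoacetamide desthiobiotin (IA-DTB) probe, intensity after compound treatment relative to DMSO-treated cells.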

Target | probe-labelled cysteine peptide fold change (10 µM) | probe-labelled cysteine peptide fold change (50 µM)
CIAPIN1_Q6FI81_285_CASCPYLGMPAFKPGEK (UniProt Q6FI81) | -0.0926 | -0.626
CHORDC1_Q9UHD1_194+195_YWSCCR (UniProt Q9UHD1) | 0.199 | -0.489
CIAO1_O76071_271_TIYDIAWCQLTGALATACGDDAIR (UniProt O76071) | 0.287 | 0.223
CHKB_Q9Y259_28_CPDTTPK (UniProt Q9Y259) | -0.308 | -0.309
CLP1_Q92989_311_GCFYPHAFNVK (UniProt Q92989) | 0.0944 | 0.2
CHD4_Q14839_396_AYHMVCLDPDMEK (UniProt Q14839) | -0.067 | 0.347
CHD4_Q14839_1827_FAEVECLAESHQHLSK (UniProt Q14839) | -0.107 | -0.204
CLIC1_O00299_178_FLDGNELTLADCNLLPK (UniProt O00299) | -0.111 | -0.000847
CHKB_Q9Y259_17_AAEATAVAGSGAVGGCLAK (UniProt Q9Y259) | -0.32 | -0.523
CHCHD5_Q9BSY4_22_ELEQYGQCVAAKPESWQR (UniProt Q9BSY4) | -0.00679 | 0.264
CMIP_Q8IY22_363_NGCQQPCDR (UniProt Q8IY22) | -0.29 | -1.18
CLTC_Q00610_926_GQCDLELINVCNENSLFK (UniProt Q00610) | -0.0482 | -0.037
CMAS_Q8NFW8_380_EVAYLGNEVSDEECLKR (UniProt Q8NFW8) | -0.0599 | 0.187
CLCN3_P51790_733_VCFAQHTPSLPAESPRPLK (UniProt P51790) | 0.0452 | -0.119
CHAF1B_Q13112_191_SYVQGVTWDPLGQYVATLSCDR (UniProt Q13112) | 0.464 | 0.729
CIR1_Q86X95_10_SFANFMCK (UniProt Q86X95) | 0.235 | -0.0587
CHCHD3_Q9NX63_112_ICSEEER (UniProt Q9NX63) | -0.514 | -0.112
CLTC_Q00610_436_FQSVPAQPGQTSPLLQYFGILLDQGQLNKYESLELCRPVLQQGR (UniProt Q00610) | 0.0469 | -0.811
CLASP2_O75122_502_SQGCSR (UniProt O75122) | -0.158 | -0.69
CHD9_Q3L8U1_1705_ADPALCFLER (UniProt Q3L8U1) | 0.0167 | 0.18

Reprinted at random: 3 entries already listed
Target | probe-labelled cysteine peptide fold change (10 µM) | probe-labelled cysteine peptide fold change (50 µM)
CHCHD3_Q9NX63_112_ICSEEER (UniProt Q9NX63) | -0.514 | -0.112
CIAPIN1_Q6FI81_285_CASCPYLGMPAFKPGEK (UniProt Q6FI81) | -0.0926 | -0.626
CIR1_Q86X95_10_SFANFMCK (UniProt Q86X95) | 0.235 | -0.0587

(continued)

Target | probe-labelled cysteine peptide fold change (10 µM) | probe-labelled cysteine peptide fold change (50 µM)
CMAS_Q8NFW8_394_VGLSGAPADACSTAQK (UniProt Q8NFW8) | -0.0398 | -0.128
CLTC_Q00610_151_HSSLAGCQIINYR (UniProt Q00610) | 0.161 | 0.273
CLASP1_Q7Z460_453_LIPVITSNCTSK (UniProt Q7Z460) | -0.108 | 0.0962
CIT_O14578_105_SLVGCGHFAEVQVVR (UniProt O14578) | 0.00678 | -0.0443
CHURC1_Q8WUH1_44+60_GNTCLENGSFLLNFTGCAVCSK (UniProt Q8WUH1) | 0.251 | 0.227
CINP_Q9BW66_92_LCEELQATLDGLTK (UniProt Q9BW66) | 0.291 | -0.0536
CHD8_Q9HCK8_680_NYSYLHCEWATISQLEK (UniProt Q9HCK8) | 0.0935 | -0.0197
CHCHD3_Q9NX63_183_YESHPVCADLQAK (UniProt Q9NX63) | -0.459 | 0.402
CLTC_Q00610_666_RAVVHTHLLNPEWLVNYFGSLSVEDSLECLR (UniProt Q00610) | 0.121 | 0.496
CFL1_P23528_147_DRCTLAEK (UniProt P23528) | -0.108 | 0.0839
CHML_P26374_103_KKDETIQHTEAFCYASQDMEDNVEEIGALQK (UniProt P26374) | -0.181 | -0.343
CIT_O14578_1688_GCHLFGAGK (UniProt O14578) | -0.0614 | -0.119
CHD8_Q9HCK8_1902_EQVLCHPLLEDR (UniProt Q9HCK8) | -0.0868 | 0.274
CKB_P12277_254_FCTGLTQIETLFK (UniProt P12277) | 0.0607 | 0.0404
CHMP5_Q9NZZ3_20_APPPSLTDCIGTVDSR (UniProt Q9NZZ3) | -0.0163 | -0.364
CLUH_O75153_762_DCMEHAVLPVDGATLAEVMR (UniProt O75153) | -0.115 | -0.208
CLTCL1_P53675_918_DPHLACVAYER (UniProt P53675) | 0.036 | -0.146
CLPTM1_O96005_308_VSFCPLSLWR (UniProt O96005) | -0.221 | 0.177
CKAP5_Q14008_1026_STPTDLILCVPHLYSCLEDR (UniProt Q14008) | 0.144 | -0.0942
CHURC1_Q8WUH1_88_EEDGEEIVTYDHLCK (UniProt Q8WUH1) | -0.029 | 0.282

From the supplement of paper PMC12067093, “Discovery and optimisation of a covalent ligand for TRIM25 and its application to targeted protein ubiquitination” (Chemical Science, 2025)
